No constants are given. Whether binding was seen depends on the method and setting. Binding seen in cells or lysates may run through a third protein. Some results given as binding are weak or reduced against the parent protein; the word gives no strength. Sequences can lack the tags named with a protein.

By UniProt entry, the sequences of proteins in these tests, tags left out.
UniProt Q16665: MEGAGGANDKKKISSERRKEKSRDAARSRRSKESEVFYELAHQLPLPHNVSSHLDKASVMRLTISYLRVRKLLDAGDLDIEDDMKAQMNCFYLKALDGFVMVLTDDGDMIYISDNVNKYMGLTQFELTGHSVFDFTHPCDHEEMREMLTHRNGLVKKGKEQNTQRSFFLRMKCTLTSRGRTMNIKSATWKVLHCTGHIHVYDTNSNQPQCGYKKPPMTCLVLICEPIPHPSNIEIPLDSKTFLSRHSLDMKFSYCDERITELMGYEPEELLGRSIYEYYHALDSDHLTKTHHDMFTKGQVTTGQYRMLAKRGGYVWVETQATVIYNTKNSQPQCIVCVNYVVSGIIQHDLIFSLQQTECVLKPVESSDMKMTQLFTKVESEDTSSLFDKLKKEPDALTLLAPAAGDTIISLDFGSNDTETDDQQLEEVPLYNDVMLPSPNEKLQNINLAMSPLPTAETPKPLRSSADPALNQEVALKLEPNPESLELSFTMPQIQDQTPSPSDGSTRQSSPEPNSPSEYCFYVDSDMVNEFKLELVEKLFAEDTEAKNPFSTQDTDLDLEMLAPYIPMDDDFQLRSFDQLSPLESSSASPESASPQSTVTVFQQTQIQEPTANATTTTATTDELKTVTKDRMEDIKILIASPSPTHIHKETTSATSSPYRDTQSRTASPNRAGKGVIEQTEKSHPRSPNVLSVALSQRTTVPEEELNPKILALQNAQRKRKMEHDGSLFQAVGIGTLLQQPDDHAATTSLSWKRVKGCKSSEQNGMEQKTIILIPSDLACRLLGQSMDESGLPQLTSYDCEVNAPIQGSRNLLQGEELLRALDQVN

The target of this assay is hypoxia-inducible factor 1-alpha (HIF1α) (human (endogenous in HEK 293T)) (UniProt Q16665). In words: co-IP; 500 ug RIPA lysate of HEK 293T cells expressing GFP-CEP41, under normoxia or hypoxia; 2 ug anti-HIF1α or anti-CEP41 antibody with Dynabeads Protein G overnight at 4°C; washed 3 times with PBST (0.5% Tween-20); IgG as negative control.

B1: GFP-CEP41 (centrosomal protein 41) (protein, UniProt Q9BYV8 1-373)
chain: MSLRRHIGNPEYLMKRIPQNPRYQHIKSRLDTGNSMTKYTEKLEEIKKNYRYKKDELFKRLKVTTFAQLIIQVASLSDQTLEVTAEEIQRLEDNDSAASDPDAETTARTNGKGNPGEQSPSPEQFINNAGAGDSSRSTLQSVISGVGELDLDKGPVKKAEPHTKDKPYPDCPFLLLDVRDRDSYQQCHIVGAYSYPIATLSRTMNPYSNDILEYKNAHGKIIILYDDDERLASQAATTMCERGFENLFMLSGGLKVLAQKFPEGLITGSLPASCQQALPPGSARKRSSPKGPPLPAENKWRFTPEDLKKIEYYLEEEQGPADHPSRLNQANSSGRESKVPGARSAQNLPGGGPASHSNPRSLSSGHLQGKPWK
As to B1, the binding entry was “binds”.

Values taken from article PMC7001496.
